Values quoted from earlier work in US11090267B2, “Rapidly degrading embolic particles with therapeutic agent release” (priority 2014, dated 2021).

Settings: cited from earlier work

Q: Which aqueous solubility does the source give for `CC(=O)O[C@H]1C(=O)[C@@]2(C)[C@H]([C@H](OC(=O)c3ccccc3)[C@]3(O)C[C@H](OC(=O)[C@H](O)[C@@H](NC(=O)c4ccccc4)c4ccccc4)C(C)=C1C3(C)C)[C@]1(OC(C)=O)CO[C@@H]1C[C@@H]2O` [Crystalline dihydrate paclitaxel, paclitaxel] here?
A: The aqueous solubility was less than 1000 µg/mL.
